From patent US6344546
Results are given in words; binding and its absence hold for the method and conditions named. Some results given as binding are weak or reduced against the parent protein; the word gives no strength.

By UniProt entry, the sequences of proteins in these tests, tags left out. Residues count along the entry.
UniProt P11362, residues 22-822: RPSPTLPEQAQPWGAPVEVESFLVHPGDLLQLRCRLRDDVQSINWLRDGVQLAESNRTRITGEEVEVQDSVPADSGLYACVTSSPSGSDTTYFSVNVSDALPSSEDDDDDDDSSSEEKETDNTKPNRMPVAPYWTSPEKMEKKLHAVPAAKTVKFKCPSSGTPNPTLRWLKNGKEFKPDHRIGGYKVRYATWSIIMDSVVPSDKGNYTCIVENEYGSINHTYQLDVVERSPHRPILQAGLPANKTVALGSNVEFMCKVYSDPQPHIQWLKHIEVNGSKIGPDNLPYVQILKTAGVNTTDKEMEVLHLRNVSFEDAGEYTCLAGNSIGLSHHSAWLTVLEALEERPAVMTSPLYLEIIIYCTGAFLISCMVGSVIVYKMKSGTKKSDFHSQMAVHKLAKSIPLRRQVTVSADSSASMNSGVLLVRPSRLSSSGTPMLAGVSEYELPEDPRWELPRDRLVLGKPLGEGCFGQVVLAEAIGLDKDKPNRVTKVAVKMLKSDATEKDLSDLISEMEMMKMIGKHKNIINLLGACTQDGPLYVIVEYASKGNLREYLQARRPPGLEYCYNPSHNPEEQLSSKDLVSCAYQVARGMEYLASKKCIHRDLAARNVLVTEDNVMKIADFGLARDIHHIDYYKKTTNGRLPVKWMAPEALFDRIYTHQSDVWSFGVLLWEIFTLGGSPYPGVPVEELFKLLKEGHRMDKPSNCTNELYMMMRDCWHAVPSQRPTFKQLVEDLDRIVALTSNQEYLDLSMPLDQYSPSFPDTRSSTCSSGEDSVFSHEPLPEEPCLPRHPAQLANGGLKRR
UniProt P21802, residues 22-821: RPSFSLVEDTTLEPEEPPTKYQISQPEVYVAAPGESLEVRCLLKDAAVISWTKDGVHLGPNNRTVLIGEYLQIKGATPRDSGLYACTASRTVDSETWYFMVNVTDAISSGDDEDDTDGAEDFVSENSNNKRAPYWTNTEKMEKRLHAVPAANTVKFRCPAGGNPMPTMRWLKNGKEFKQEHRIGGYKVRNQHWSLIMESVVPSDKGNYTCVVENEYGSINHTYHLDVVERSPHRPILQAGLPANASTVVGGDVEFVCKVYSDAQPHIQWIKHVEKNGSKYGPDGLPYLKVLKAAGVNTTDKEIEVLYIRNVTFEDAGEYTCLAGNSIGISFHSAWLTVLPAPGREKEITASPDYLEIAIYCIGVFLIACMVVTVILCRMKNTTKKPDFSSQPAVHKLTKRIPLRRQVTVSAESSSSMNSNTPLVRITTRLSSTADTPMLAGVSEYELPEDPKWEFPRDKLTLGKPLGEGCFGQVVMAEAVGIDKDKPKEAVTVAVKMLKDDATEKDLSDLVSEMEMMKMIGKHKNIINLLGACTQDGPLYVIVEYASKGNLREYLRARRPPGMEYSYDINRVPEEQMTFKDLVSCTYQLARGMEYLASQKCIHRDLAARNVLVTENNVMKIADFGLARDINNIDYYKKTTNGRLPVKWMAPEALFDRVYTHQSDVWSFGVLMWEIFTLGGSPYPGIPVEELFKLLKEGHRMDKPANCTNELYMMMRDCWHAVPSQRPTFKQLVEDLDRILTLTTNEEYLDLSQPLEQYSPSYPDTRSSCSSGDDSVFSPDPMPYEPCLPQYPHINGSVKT
UniProt P09038, residues 134-288: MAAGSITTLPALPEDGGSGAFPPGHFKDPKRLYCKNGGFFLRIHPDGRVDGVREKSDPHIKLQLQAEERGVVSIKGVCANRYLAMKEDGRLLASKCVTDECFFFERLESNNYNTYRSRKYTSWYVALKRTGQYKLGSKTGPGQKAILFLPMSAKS
UniProt P03968, residues 16-155: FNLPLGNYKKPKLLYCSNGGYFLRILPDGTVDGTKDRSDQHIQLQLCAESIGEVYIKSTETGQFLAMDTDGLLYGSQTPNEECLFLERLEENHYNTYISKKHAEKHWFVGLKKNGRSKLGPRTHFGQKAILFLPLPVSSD

Tests used:
[1] = biological target: human flg (fms-like gene) fibroblast growth factor receptor (human) (UniProt P11362); experiment: saturation binding of iodinated ligand to overexpressing cells
[2] = biological target: human bek (bacterially expressed kinase) fibroblast growth factor receptor (human) (UniProt P21802); experiment: as above
[3] = biological target: human flg (fms-like gene) fibroblast growth factor receptor (human) (UniProt P11362); experiment: covalent crosslinking of [125I]FGF to intact cells with disuccinimidyl suberate, SDS-PAGE
[4] = biological target: human bek (bacterially expressed kinase) fibroblast growth factor receptor (human) (UniProt P21802); experiment: as above
[5] = biological target: human flg (fms-like gene) fibroblast growth factor receptor (human) (UniProt P11362); experiment: crosslinking of [125I]aFGF to transfected NIH 3T3 clones
[6] = biological target: human bek (bacterially expressed kinase) fibroblast growth factor receptor (human) (UniProt P21802); experiment: as above

Measured: binding

human recombinant basic fibroblast growth factor (from UniProt P09038 134-288) (ligand)
binds: [1] | [2] | [3] | [4]

bovine derived acidic fibroblast growth factor (from UniProt P03968 16-155) (ligand)
binds: all assays above
